This is one part of the list. The main result of the screen is listed elsewhere. These columns were measured beside it and carry no call. Most of these compounds were active or inconclusive in the main read-out, so they are no random draw. The note in brackets gives the kind of curve behind each potency; many fits are weak.
Experiment: qHTS Assay for Lipid Storage Modulators in Drosophila S3 Cells;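 as to cell number change: cells counted by Cell Tracker Red CMTPX staining in the red channel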
Conditions: BODIPY lipid droplet fluorescence, 18-24 h; for cell number change: measured here: cell count max response, cells fed with added oleic acid
Method in brief: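 Drosophila S3 cells got compounds at several concentrations plus oleic acid (400 uM solution). Laser-scanning cytometry with 488 nm excitation read lipid droplets at 500-530 nm and cells at 575-640 nm. Percent activity was relative to 20 uM Triacsin C.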

[1] = measured here: lipid fluorescence (Fed channel) AC50, cells fed with added oleic acid
[2] = measured here: cell number channel AC50, cells fed with added oleic acid

SMILES | cell number change [%] | AC50 [1] | AC50 [2]
Cc1ccc(C(=O)NCC(=O)OCC(=O)Nc2ccc(Cl)cc2C(F)(F)F)cc1C | 29 | 0.92 µM [rising, partial curve] | 
CC(=O)NC1=NN(C(C)=O)C(C)(c2cccc([N+](=O)[O-])c2)S1 (configuration not stated) | -19.7 |  | 6.51 µM [falling, single point]
COc1cc2c(cc1OC)CN(c1nc(CN3CCOCC3)nc3sc4c(c13)CCC(C)C4)CC2 (configuration not stated) | -12.2 | 0.146 µM [falling, full curve, poor fit] | 0.517 µM [rising, single point]
COC(=O)CCC(=O)Nc1ccc(Cl)c(Cl)c1 | 0.195 |  | 
CCOC(=O)c1ccc(-c2ccc(/C=N/NC(=O)CN(c3cccc(C)c3)S(C)(=O)=O)o2)cc1 |  | 0.116 µM [rising, full curve, poor fit] | 
O=C(CCC(=O)c1ccc(F)cc1)Nc1cccc(Br)c1 | 22.6 | 20.6 µM [rising, single point] | 
O=C(O)CCCc1nc(-c2ccc(Cl)cc2)no1 | 7.87 |  | 
CC1CCN(C(=O)C(C)Sc2nc(-c3ccccc3)cc(C(F)(F)F)n2)CC1 (configuration not stated) | -43.1 | 1.84 µM [rising, partial curve, poor fit] | 20.6 µM [falling, single point]
COc1ccc(NS(=O)(=O)c2ccc(C)c(C(=O)NCC(c3ccco3)N3CCCCC3)c2)cc1 (configuration not stated) | 140 |  | 23.1 µM [rising, single point]
Cc1oc2ccc(O)cc2c1C(=O)c1ccc([N+](=O)[O-])cc1 | -26.1 | 4.61 µM [falling, full curve] | 
Cc1ccc(C(=O)COC(=O)c2cc(Cl)ccc2O)cc1[N+](=O)[O-] | -3.52 | 32.6 µM [falling, single point] | 
COc1ccc(/C=N/NC(=O)c2c(-c3ccccc3)noc2C)cc1[N+](=O)[O-] | 22.5 | 4.61 µM [rising, full curve] | 
O=C(NCc1ccco1)C1CCCN1S(=O)(=O)c1ccc2ccccc2c1 (configuration not stated) |  |  | 2.59 µM [rising, single point]
N/C(COc1ncn(-c2ccccc2)n1)=N\S(=O)(=O)c1ccc(Cl)cc1Cl | 150 |  | 29.1 µM [rising, single point]
Cc1ccc(Sc2ccc(NC(=O)c3ccc(S(C)(=O)=O)cc3Cl)cc2)cc1 | -46.1 | 11.6 µM [falling, partial curve, poor fit] | 29.1 µM [falling, single point]
COCc1ccc(C(=O)N2CCCC(CNC(=O)c3ccc(F)cc3)C2)o1 (configuration not stated) | 7.33 |  | 
COC(=O)c1sccc1NC(=O)Nc1ccc(Cl)c(Cl)c1 | 25 |  | 3.66 µM [rising, single point]
Cc1nn(-c2ccc(F)cc2)c(Cl)c1C(=O)N(C)CC(=O)Nc1cccc(F)c1 | 75 |  | 
CCOC(=O)c1cc2cc(-c3c(C(=O)OCC)oc4cc(O)cc(O)c4c3=O)ccc2o1 | -45.1 | 32.6 µM [falling, single point] | 16.4 µM [falling, single point]
CCc1noc(C)c1C(=O)N1CCCC(CCC(=O)NCc2ccc(F)c(F)c2)C1 (configuration not stated) | -21.7 | 10.3 µM [falling, partial curve] | 

SMILES | cell number change [%] | AC50 [1] | AC50 [2]
COc1cc(CCN2C(=O)N[C@@H](CCc3ccccc3)C(C(C)=O)=C2C)cc(OC)c1OC | 16.5 | 0.82 µM [rising, full curve] | 
CCOC(=O)CC(=O)CSc1nc2c(C)c(C)ccc2cc1C |  | 2.91 µM [rising, partial curve] | 
COc1ccc(S(=O)(=O)N(C)CC(=O)NCc2ccc3c(c2)OCO3)cc1 |  | 2.91 µM [falling, partial curve] | 
CCN(CC)c1ccc(NC(=S)NC(=O)C2CCC2)cc1 |  | 3.26 µM [falling, partial curve] | 
CCOC(=O)C1CCCN(CC(=O)Nc2c(F)c(F)c(F)c(F)c2F)C1 (configuration not stated) | 1.28 |  | 
CCn1c(SCC(=O)N2CCCC(C)C2)nnc1-c1ccco1 (configuration not stated) | 11.4 |  | 
CCOc1ccc(NC(=O)c2cc(F)c(F)cc2Cl)cc1OCC | 12.1 | 3.26 µM [rising, single point] | 
CCCCNC(=O)c1sc2ncnc(N3CCc4ccccc4C3)c2c1C | -14.5 |  | 
Cc1ccc(-c2nnc(Nc3ccccc3)o2)cc1 |  |  | 0.164 µM [falling, full curve, poor fit]
Cc1ccc(-c2cc(C(=O)NC3=NCCS3)c3cc(Br)ccc3n2)o1 |  | 6.51 µM [rising, partial curve, poor fit] | 
Cc1ccc(C(=O)N[C@@H](Cc2ccccc2)C(=O)N2CCC3(CC2)NCCc2[nH]cnc23)cc1C | -2.97 | 6.51 µM [falling, single point] | 
CCOCc1nnc(NC(=O)c2ccc(NC(C)=O)cc2)s1 | -15.9 | 0.082 µM [falling, full curve, poor fit] | 
O=C(N/N=C/c1ccc([N+](=O)[O-])o1)C(O)c1ccccc1 (configuration not stated) | -59.7 | 1.3 µM [falling, full curve] | 6.51 µM [falling, full curve]
CC(=O)N1N=C(c2ccccc2)CC1c1ccccc1 (configuration not stated) | 10.3 | 0.092 µM [rising, full curve, poor fit] | 
CN(C)S(=O)(=O)c1cccc(NC(=O)COC(=O)/C=C/c2ccco2)c1 | -35 | 2.59 µM [falling, full curve, poor fit] | 0.231 µM [falling, full curve]
COc1ccccc1C(CNC(=O)c1ccc(OCc2c(C)noc2C)cc1)N1CCCC1 (configuration not stated) | 21.7 | 29.1 µM [rising, single point] | 
COc1ccc(NC2CCCN(C(=O)CSc3ccccc3)C2)cc1OC (configuration not stated) | -13.8 | 16.4 µM [falling, single point] | 
O=C(c1cc2cc(F)ccc2[nH]1)N1CCN(c2cccc(Cl)c2)CC1 | 35.1 |  | 0.231 µM [rising, full curve, poor fit]
CN1CCN(c2ccc(NC(=O)CN3CCOCC3)cc2F)CC1 | -24.3 |  | 
O=C(NCC(=O)N1CCCCC1)c1ccc2ccccc2c1 | 16.2 | 16.4 µM [rising, single point] | 

Part of the list above, comma-delimited.
SMILES,cell number change [%],AC50 [1],AC50 [2]
Cc1ccc(-c2nnc(Nc3ccccc3)o2)cc1,,,"0.164 µM [falling, full curve, poor fit]"
Cc1ccc(-c2cc(C(=O)NC3=NCCS3)c3cc(Br)ccc3n2)o1,,"6.51 µM [rising, partial curve, poor fit]",

(cont.)

SMILES | cell number change [%] | AC50 [1] | AC50 [2]
O=C1CCCC2=C1C1O[C@](CCCCN3C(=O)c4ccccc4C3=O)(Cc3c1ccc1ccccc31)O2 | 0.0835 | 0.596 µM [rising, single point] | 
O=C1CCC/C1=C\Nc1ccc(Cl)c([N+](=O)[O-])c1 | 21.9 | 0.00517 µM [rising, full curve, poor fit] | 0.00461 µM [rising, full curve, poor fit]
CCCCCCn1ccc(=N)cc1 | -42 | 13 µM [falling, partial curve] | 4.11 µM [falling, partial curve]
CC(C)NC(=O)c1sc(=S)n2c1[nH]c(=O)c1ccc(C(=O)NCCc3ccc(Cl)cc3)cc12 |  | 0.366 µM [falling, partial curve] | 
O=C(c1ccccc1Cl)N1CCN(S(=O)(=O)N2CCCCC2)CC1 | 11.7 | 29.1 µM [rising, single point] | 
CCc1ccc(-c2nc(CS(=O)CC(=O)NCCCN3CCOCC3)c(C)o2)cc1 (configuration not stated) | 9.13 | 29.1 µM [rising, single point] | 
COc1cccc2c1cc1c(=O)n(CC(=O)N3CCC(C)CC3)nc(C)n12 |  | 0.517 µM [rising, partial curve] | 
Cc1nc(-c2nc(-c3c(C(=O)NNC(=O)Nc4ccccc4)noc3C)cs2)cs1 | 24.9 | 2.06 µM [rising, full curve, poor fit] | 
CCOc1ccc2[nH]c(=O)c(CN(Cc3nnnn3CCc3ccccc3)CC3CCCO3)cc2c1 (configuration not stated) | -29 | 16.4 µM [falling, single point] | 
O=C(COS(=O)c1ccccc1)Nc1cc(Cl)ccc1N1CCOCC1 (configuration not stated) | -38.2 | 6.51 µM [falling, full curve] | 5.17 µM [falling, full curve]
COc1cc(C(=O)NC(=S)Nc2ccc(Cl)cn2)cc(OC)c1OC | 4.58 | 29.1 µM [rising, single point] | 
COc1ccccc1NC(=O)C(C)N1C(=O)C2CCCCC2C1=O (configuration not stated) | 17 | 29.1 µM [rising, single point] | 
CCN(Cc1ccc(OC)c(COC)c1)CC1CCCN(CCc2cccc(F)c2)C1 (configuration not stated) | -6.22 | 0.731 µM [rising, single point] | 
CN(c1cccc(Cl)c1)S(=O)(=O)c1cccc(C(=O)NN2CCOCC2)c1 | -32 | 6.51 µM [falling, full curve, poor fit] | 8.2 µM [falling, partial curve, poor fit]
COc1cc(OC)c(C(=O)N(CCc2ccccc2)Cc2ccccc2)cc1OC | -37.6 |  | 31.6 µM [falling, single point]
O=C(c1ccc(Cl)cc1)N1CCCCC(Cl)C1=O (configuration not stated) | -37 | 7.31 µM [falling, partial curve] | 
CS(=O)(=O)N1CCCC(C(=O)N2CCOCC2)C1 (configuration not stated) | -42.8 | 29.1 µM [falling, single point] | 18.4 µM [falling, single point]
Oc1[nH]c2ccccc2c1N=Nc1ccc(F)cc1 |  | 11.6 µM [falling, partial curve] | 
Cc1ccc2cc(C(c3nnnn3Cc3ccccc3)N3CCc4ccccc43)c(=O)[nH]c2c1 (configuration not stated) | 16.5 | 6.51 µM [rising, partial curve] | 0.411 µM [rising, partial curve, poor fit]

— PubChem BioAssay AID2685 (National Center for Advancing Translational Sciences (NCATS), 2010)
